According to paper PMC7265341, “Quantifying CDK inhibitor selectivity in live cells” (Nature Communications, 2020):
The structures given here were assigned with low confidence; some may be wrong.

Chains of the proteins cited; added tags and fusions are not shown. Residues count along the entry.
UniProt Q8IZL9, whole entry: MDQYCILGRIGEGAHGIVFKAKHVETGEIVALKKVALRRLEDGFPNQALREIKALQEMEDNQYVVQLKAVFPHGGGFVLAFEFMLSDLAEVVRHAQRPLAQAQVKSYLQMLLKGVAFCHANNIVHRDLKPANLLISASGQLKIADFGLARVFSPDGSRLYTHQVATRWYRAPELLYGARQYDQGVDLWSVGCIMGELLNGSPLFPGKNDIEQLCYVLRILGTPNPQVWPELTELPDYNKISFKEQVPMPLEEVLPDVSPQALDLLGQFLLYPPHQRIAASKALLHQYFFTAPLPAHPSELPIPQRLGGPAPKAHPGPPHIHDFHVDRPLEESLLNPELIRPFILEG
UniProt Q00535, whole entry: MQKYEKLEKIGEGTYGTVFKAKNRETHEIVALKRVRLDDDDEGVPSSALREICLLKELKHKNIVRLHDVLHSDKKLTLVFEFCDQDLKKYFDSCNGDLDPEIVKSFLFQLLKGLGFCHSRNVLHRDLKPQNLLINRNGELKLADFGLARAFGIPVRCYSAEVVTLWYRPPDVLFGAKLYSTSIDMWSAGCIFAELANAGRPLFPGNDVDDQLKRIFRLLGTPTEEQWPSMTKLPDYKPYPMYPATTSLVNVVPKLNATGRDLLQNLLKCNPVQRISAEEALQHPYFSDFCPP
UniProt P11802, whole entry: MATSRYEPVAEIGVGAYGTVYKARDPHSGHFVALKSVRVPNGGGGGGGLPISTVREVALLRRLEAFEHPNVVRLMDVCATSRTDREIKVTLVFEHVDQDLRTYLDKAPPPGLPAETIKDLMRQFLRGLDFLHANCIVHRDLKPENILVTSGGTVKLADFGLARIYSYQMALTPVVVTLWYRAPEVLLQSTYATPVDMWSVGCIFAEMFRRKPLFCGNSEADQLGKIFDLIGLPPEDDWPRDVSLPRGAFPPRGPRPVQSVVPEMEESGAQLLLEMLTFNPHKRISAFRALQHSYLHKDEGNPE
UniProt Q00537, whole entry: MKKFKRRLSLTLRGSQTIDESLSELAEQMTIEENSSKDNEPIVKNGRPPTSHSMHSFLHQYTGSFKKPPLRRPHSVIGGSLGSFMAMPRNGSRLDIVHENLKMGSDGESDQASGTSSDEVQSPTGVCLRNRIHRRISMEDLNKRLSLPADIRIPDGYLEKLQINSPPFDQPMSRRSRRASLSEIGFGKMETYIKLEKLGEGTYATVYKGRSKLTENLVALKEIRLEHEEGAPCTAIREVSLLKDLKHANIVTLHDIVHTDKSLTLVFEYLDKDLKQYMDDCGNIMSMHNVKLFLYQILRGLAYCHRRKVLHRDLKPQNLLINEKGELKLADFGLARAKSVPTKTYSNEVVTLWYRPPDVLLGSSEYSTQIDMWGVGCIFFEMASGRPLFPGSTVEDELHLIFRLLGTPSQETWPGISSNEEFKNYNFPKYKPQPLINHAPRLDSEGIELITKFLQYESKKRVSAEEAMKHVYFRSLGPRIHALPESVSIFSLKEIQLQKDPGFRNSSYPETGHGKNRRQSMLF
UniProt P06493, whole entry: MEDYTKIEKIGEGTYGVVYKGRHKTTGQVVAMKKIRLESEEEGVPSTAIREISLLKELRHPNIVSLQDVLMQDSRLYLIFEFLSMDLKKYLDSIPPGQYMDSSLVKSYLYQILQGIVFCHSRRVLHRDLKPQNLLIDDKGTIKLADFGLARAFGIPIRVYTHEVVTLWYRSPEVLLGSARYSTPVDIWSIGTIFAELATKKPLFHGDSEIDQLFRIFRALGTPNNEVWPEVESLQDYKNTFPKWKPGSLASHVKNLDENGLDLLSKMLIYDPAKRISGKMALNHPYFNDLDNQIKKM
UniProt Q07002, whole entry: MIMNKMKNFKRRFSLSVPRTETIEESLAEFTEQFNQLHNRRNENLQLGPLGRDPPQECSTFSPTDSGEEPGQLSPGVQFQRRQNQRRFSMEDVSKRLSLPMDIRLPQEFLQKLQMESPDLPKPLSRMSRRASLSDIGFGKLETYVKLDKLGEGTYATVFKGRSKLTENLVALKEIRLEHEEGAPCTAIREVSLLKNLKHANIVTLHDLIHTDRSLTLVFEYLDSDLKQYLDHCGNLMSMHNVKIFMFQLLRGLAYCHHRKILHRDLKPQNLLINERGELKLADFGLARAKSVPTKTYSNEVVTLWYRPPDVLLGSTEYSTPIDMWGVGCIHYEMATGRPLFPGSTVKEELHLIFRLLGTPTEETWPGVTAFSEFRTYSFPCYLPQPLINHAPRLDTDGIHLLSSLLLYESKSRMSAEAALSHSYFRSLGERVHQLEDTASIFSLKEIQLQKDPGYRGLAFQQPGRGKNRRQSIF
UniProt P50750, whole entry: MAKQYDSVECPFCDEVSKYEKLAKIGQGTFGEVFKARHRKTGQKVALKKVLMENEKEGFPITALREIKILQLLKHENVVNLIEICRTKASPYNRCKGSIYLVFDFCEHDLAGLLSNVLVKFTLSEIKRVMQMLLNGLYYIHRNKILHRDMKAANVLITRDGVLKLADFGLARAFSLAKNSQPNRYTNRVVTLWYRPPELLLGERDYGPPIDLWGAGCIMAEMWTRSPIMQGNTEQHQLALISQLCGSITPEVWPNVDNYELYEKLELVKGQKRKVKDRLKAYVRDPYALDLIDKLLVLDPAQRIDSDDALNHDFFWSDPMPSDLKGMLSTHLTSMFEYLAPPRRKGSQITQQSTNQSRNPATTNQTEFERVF
UniProt Q00536, whole entry: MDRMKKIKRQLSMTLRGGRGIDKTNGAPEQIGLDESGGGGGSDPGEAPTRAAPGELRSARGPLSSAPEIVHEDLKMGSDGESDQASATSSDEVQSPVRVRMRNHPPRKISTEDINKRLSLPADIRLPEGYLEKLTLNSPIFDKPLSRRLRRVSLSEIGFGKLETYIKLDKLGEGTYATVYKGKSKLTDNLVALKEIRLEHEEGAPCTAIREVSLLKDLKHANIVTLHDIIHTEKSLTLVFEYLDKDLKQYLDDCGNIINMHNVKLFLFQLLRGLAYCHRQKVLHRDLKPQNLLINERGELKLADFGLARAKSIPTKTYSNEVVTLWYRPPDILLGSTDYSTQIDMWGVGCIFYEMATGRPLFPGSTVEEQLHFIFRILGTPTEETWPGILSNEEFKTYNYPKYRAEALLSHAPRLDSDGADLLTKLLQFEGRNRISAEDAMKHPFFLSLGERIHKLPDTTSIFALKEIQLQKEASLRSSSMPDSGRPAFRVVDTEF
UniProt Q14004, 1-1452 isoform 2: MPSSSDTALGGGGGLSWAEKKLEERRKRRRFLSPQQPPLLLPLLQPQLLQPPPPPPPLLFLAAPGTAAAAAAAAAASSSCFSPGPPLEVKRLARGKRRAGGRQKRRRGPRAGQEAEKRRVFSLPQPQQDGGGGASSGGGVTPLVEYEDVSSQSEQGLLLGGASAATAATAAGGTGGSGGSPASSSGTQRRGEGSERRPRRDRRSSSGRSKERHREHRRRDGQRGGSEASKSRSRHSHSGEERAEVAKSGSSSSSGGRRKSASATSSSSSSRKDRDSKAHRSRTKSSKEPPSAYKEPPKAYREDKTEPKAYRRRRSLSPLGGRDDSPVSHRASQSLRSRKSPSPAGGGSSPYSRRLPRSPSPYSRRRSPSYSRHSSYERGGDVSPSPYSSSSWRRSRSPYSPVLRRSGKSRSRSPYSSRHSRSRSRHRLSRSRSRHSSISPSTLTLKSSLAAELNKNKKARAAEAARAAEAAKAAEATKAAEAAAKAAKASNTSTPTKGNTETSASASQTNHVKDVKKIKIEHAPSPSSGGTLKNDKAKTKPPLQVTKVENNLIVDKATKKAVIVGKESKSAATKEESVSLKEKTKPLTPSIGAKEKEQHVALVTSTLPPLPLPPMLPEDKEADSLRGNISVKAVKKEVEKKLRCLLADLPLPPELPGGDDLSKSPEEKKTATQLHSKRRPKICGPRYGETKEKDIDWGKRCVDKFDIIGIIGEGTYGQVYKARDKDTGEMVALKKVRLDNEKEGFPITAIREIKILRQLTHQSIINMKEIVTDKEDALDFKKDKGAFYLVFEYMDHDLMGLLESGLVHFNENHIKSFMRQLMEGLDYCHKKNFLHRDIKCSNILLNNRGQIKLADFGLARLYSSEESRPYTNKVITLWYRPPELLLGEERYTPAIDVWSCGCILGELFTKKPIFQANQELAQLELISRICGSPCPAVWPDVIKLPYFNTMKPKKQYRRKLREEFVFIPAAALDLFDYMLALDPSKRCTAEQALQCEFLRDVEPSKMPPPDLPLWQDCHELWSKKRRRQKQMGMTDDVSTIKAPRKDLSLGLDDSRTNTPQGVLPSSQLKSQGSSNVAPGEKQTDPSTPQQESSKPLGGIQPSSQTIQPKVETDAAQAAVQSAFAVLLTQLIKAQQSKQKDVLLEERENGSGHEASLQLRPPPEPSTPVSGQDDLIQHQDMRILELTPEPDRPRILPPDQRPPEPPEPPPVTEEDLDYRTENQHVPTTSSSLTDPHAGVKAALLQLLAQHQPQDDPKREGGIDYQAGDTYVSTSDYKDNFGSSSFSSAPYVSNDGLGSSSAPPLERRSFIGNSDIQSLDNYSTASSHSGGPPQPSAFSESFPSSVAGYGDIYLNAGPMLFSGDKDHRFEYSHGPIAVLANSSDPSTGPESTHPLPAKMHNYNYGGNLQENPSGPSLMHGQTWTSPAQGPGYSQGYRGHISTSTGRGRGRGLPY
UniProt Q14004, whole entry: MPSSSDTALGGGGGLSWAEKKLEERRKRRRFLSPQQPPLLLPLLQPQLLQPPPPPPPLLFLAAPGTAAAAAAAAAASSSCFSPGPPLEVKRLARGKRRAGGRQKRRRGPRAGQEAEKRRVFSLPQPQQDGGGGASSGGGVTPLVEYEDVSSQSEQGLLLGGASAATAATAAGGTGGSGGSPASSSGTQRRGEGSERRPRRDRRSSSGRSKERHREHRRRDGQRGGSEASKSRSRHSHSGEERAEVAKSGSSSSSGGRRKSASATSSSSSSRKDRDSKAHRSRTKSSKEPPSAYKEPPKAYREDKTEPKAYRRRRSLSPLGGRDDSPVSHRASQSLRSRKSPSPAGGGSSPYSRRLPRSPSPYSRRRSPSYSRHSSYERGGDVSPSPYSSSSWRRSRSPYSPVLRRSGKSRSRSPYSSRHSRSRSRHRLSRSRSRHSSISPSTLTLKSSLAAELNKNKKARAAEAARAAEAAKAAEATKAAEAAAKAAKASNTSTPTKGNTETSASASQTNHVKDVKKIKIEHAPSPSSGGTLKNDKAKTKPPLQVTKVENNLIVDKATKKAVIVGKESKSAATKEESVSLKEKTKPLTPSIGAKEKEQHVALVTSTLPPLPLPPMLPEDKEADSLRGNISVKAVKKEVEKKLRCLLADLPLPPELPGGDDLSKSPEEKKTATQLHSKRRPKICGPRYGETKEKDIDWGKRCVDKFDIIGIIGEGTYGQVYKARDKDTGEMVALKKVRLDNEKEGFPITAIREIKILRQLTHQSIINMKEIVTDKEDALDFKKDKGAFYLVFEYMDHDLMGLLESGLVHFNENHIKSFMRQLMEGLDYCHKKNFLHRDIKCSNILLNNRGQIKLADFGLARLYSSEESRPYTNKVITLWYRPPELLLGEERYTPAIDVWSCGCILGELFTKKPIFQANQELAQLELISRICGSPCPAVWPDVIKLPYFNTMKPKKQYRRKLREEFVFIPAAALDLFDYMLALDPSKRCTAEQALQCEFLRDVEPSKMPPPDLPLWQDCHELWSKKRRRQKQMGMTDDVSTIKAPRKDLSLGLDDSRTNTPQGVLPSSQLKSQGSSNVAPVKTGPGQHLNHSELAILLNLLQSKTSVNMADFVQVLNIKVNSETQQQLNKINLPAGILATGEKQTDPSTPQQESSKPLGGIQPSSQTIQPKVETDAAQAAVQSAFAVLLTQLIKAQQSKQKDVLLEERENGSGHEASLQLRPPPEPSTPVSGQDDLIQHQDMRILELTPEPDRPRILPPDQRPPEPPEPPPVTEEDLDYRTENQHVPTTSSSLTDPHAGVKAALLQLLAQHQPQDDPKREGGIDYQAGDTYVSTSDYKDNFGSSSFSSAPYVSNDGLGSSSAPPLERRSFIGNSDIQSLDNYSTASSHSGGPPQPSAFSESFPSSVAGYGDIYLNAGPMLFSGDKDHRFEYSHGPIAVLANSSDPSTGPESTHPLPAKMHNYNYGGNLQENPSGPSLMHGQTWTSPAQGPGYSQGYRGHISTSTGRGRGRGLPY
UniProt Q00526, whole entry: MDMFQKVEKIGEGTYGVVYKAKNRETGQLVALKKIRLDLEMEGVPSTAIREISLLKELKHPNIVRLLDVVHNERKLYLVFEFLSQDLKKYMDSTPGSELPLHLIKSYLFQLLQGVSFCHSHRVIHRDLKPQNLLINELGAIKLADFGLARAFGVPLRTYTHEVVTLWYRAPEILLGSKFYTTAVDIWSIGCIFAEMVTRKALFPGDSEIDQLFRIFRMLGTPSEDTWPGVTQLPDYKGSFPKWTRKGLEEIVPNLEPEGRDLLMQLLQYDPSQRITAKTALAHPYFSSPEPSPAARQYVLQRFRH

Assays:
CDK6/Cyclin D1 = CDK6/Cyclin D1 (Homo sapiens, UniProt Q00534); experiment: NanoBRET live-cell target engagement, NanoLuc-CDK6/Cyclin D1 in HEK-293; assay type: binding; details: probe 0.5µM, normalised to 20µM unlabeled parent compound; n=1
CDK20/Cyclin H = CDK20/Cyclin H (Homo sapiens, UniProt Q8IZL9); experiment: NanoBRET live-cell target engagement, NanoLuc-CDK20/Cyclin H in HEK-293; assay type: binding
CDK10/Cyclin L2 = CDK10/Cyclin L2 (Homo sapiens, UniProt Q15131); experiment: NanoBRET live-cell target engagement, CDK10-NanoLuc/Cyclin L2 in HEK-293; details: probe 0.5µM, normalised to 20µM unlabeled parent compound; n=1
CDK8/Cyclin C = CDK8/Cyclin C (Homo sapiens, UniProt P49336); experiment: NanoBRET live-cell target engagement, NanoLuc-CDK8/Cyclin C in HEK-293; assay type: binding; details: probe 0.5µM, normalised to 20µM unlabeled parent compound; n=1
CDK15/Cyclin Y = CDK15/Cyclin Y (Homo sapiens, UniProt Q96Q40); experiment: NanoBRET live-cell target engagement, NanoLuc-CDK15/Cyclin Y in HEK-293; assay type: binding; details: probe 0.5µM, normalised to 20µM unlabeled parent compound; n=1
CDK5/CDK5R1 = CDK5/CDK5R1 (Homo sapiens, UniProt Q00535); experiment: NanoBRET live-cell target engagement, CDK5-NanoLuc/CDK5R1 in HEK-293; assay type: binding
CDK11B/Cyclin L2 = CDK11B/Cyclin L2 (Homo sapiens, UniProt P21127); experiment: NanoBRET live-cell target engagement, CDK11B-NanoLuc/Cyclin L2 in HEK-293; assay type: binding; details: probe 0.5µM, normalised to 20µM unlabeled parent compound; n=1
CDK4/Cyclin D1 = CDK4/Cyclin D1 (Homo sapiens, UniProt P11802); experiment: NanoBRET live-cell target engagement, NanoLuc-CDK4/Cyclin D1 in HEK-293; assay type: binding; details: probe 0.5µM, normalised to 20µM unlabeled parent compound; n=1
CDK17/Cyclin Y = CDK17/Cyclin Y (Homo sapiens, UniProt Q00537); experiment: NanoBRET live-cell target engagement, CDK17-NanoLuc/Cyclin Y in HEK-293; assay type: binding
CDK2/Cyclin E1 = CDK2/Cyclin E1 (Homo sapiens, UniProt P24941); experiment: NanoBRET live-cell target engagement, CDK2-NanoLuc/Cyclin E1 in HEK-293; assay type: binding
CDK1/Cyclin E1 = CDK1/Cyclin E1 (Homo sapiens, UniProt P06493); experiment: NanoBRET live-cell target engagement, CDK1-NanoLuc/Cyclin E1 in HEK-293; assay type: binding
CDK19/Cyclin C = CDK19/Cyclin C (Homo sapiens, UniProt Q9BWU1); experiment: NanoBRET live-cell target engagement, NanoLuc-CDK19/Cyclin C in HEK-293; details: probe 0.5µM, normalised to 20µM unlabeled parent compound; n=1
CDK18/Cyclin Y = CDK18/Cyclin Y (Homo sapiens, UniProt Q07002); experiment: NanoBRET live-cell target engagement, CDK18-NanoLuc/Cyclin Y in HEK-293; assay type: binding
CDK9/Cyclin K = CDK9/Cyclin K (Homo sapiens, UniProt P50750); experiment: NanoBRET live-cell target engagement, NanoLuc-CDK9/Cyclin K in HEK-293; assay type: binding
[1] = biological target: CDK/NanoLuc fusions (CDK only samples) (Homo sapiens, UniProt Q00536); details: CDK16
[2] = biological target: CDK/NanoLuc fusions (CDK only samples) (Homo sapiens, UniProt Q14004); details: CDK13
[3] = biological target: CDK/NanoLuc fusions (CDK only samples) (Homo sapiens, UniProt P24941); details: CDK2
[4] = biological target: CDK/NanoLuc fusions (CDK only samples) (Homo sapiens, UniProt Q00535); details: CDK5
[5] = biological target: CDK/NanoLuc fusions (CDK only samples) (Homo sapiens, UniProt Q8IZL9); details: CDK20
[6] = biological target: CDK/NanoLuc fusions (CDK only samples) (Homo sapiens, UniProt Q00537); details: CDK17
[7] = biological target: CDK/NanoLuc fusions (CDK only samples) (Homo sapiens, UniProt Q00526); details: CDK3
[8] = biological target: CDK/NanoLuc fusions (CDK only samples) (Homo sapiens, UniProt P50750); details: CDK9
[9] = biological target: CDK/NanoLuc fusions (CDK only samples) (Homo sapiens, UniProt Q07002); details: CDK18
[10] = biological target: CDK/NanoLuc fusions (CDK only samples) (Homo sapiens, UniProt P06493); details: CDK1
CDK7 = CDK7 (Homo sapiens, UniProt P50613); experiment: NanoBRET live-cell target engagement, NanoLuc-CDK7 in HEK-293; assay type: binding; details: probe 0.5µM, normalised to 20µM unlabeled parent compound; n=1
CDK14/Cyclin Y = CDK14/Cyclin Y (Homo sapiens, UniProt O94921); experiment: NanoBRET live-cell target engagement, CDK14-NanoLuc/Cyclin Y in HEK-293; assay type: binding; details: probe 0.5µM, normalised to 20µM unlabeled parent compound; n=1
CDK11A/Cyclin L2 = CDK11A/Cyclin L2 (Homo sapiens, UniProt Q9UQ88); experiment: NanoBRET live-cell target engagement, CDK11A-NanoLuc/Cyclin L2 in HEK-293; assay type: binding; details: probe 0.5µM, normalised to 20µM unlabeled parent compound; n=1
CDK13/Cyclin K = CDK13/Cyclin K (Homo sapiens, UniProt Q14004); experiment: NanoBRET live-cell target engagement, CDK13-NanoLuc/Cyclin K in HEK-293; assay type: binding
CDK3/Cyclin E1 = CDK3/Cyclin E1 (Homo sapiens, UniProt Q00526); experiment: NanoBRET live-cell target engagement, CDK3-NanoLuc/Cyclin E1 in HEK-293; assay type: binding
CDK16/Cyclin Y = CDK16/Cyclin Y (Homo sapiens, UniProt Q00536); experiment: NanoBRET live-cell target engagement, CDK16-NanoLuc/Cyclin Y in HEK-293; assay type: binding
CDK12/Cyclin K = CDK12/Cyclin K (Homo sapiens, UniProt Q9NYV4); experiment: NanoBRET live-cell target engagement, CDK12-NanoLuc/Cyclin K in HEK-293; assay type: binding
[11] = probe 0.5µM, normalised to 20µM unlabeled parent compound, n=1

NC(=O)c1ccccc1Nc1nc(Nc2cccc(N3CCN(C(=O)CCOCCOCCOCCOCCNC(=O)CCc4ccc5n4[B-](F)(F)[N+]4=C(c6ccc[nH]6)C=CC4=C5)CC3)c2)ncc1Cl
Relative BRET Signal, CDK6 + Cyclin D1 (CDK6/Cyclin D1): 1.46 | Relative BRET signal (CDK20/Cyclin H; CDK20 + Cyclin H): 2.93 | Relative BRET Signal, CDK20 + Cyclin H (CDK20/Cyclin H; [11]): 2.93 | Probe EC50, NanoLuc-CDK20/ Cyclin E1 (CDK20/Cyclin H; probe titration up to 1µM, HEK-293, n=1): undefined | Relative BRET Signal, CDK10 + Cyclin L2 (CDK10/Cyclin L2): 1.43 | Relative BRET Signal, CDK8 + Cyclin C (CDK8/Cyclin C): 1.08 | Relative BRET Signal, CDK15 + Cyclin Y (CDK15/Cyclin Y): 1.74 | Relative BRET signal (CDK5/CDK5R1; CDK5 + CDK5R1): 5.55 | Relative BRET Signal, CDK5 + CDK5R1 (CDK5/CDK5R1; [11]): 5.55 | Relative BRET Signal, CDK11B + Cyclin L2 (CDK11B/Cyclin L2): 1.03 | Relative BRET Signal, CDK4 + Cyclin D1 (CDK4/Cyclin D1): 1.37 | Relative BRET signal (CDK17/Cyclin Y; CDK17 + Cyclin Y): 2.21 | Relative BRET Signal, CDK17 + Cyclin Y (CDK17/Cyclin Y; [11]): 2.21 | Relative BRET signal (CDK2/Cyclin E1; CDK2 + Cyclin E1): 8.83 | Relative BRET Signal, CDK2 + Cyclin E1 (CDK2/Cyclin E1; [11]): 8.83 | Relative BRET signal (CDK1/Cyclin E1; CDK1 + Cyclin E1): 3.10 | Relative BRET Signal, CDK1 + Cyclin E1 (CDK1/Cyclin E1; [11]): 3.1 | Relative BRET Signal, CDK19 + Cyclin C (CDK19/Cyclin C): 1.02 | Relative BRET signal (CDK18/Cyclin Y; CDK18 + Cyclin Y): 3.25 | Relative BRET Signal, CDK18 + Cyclin Y (CDK18/Cyclin Y; [11]): 3.25 | Relative BRET signal (CDK9/Cyclin K; CDK9 + Cyclin K): 3.53 | Relative BRET Signal, CDK9 + Cyclin K (CDK9/Cyclin K; [11]): 3.53 | Relative BRET signal [1]: 3.17 | Relative BRET signal [2]: 1.22 | Relative BRET signal [3]: 8.08 | Relative BRET signal [4]: 5.09 | Relative BRET signal [5]: 2.48 | Relative BRET signal [6]: 2.57 | Relative BRET signal [7]: 3.12 | Relative BRET signal [8]: 1.62 | Relative BRET signal [9]: 2.58 | Relative BRET signal [10]: 1.83 | Relative BRET Signal, CDK7 (CDK7): 1.33 | Relative BRET Signal, CDK14 + Cyclin Y (CDK14/Cyclin Y): 1.26 | Relative BRET Signal, CDK11A + Cyclin L2 (CDK11A/Cyclin L2): 1.06 | Relative BRET signal (CDK13/Cyclin K; CDK13 + Cyclin K): 1.29 | Relative BRET Signal, CDK13 + Cyclin K (CDK13/Cyclin K; [11]): 1.29 | Relative BRET signal (CDK3/Cyclin E1; CDK3 + Cyclin E1): 9.16 | Relative BRET Signal, CDK3 + Cyclin E1 (CDK3/Cyclin E1; [11]): 9.16 | Kd (CDK3/Cyclin E1; read-out: Kd,apparent of probe (linearized Cheng-Prusoff), CDK3/Cyclin E1, dinaciclib as competitor): 770 nM | Relative BRET signal (CDK16/Cyclin Y; CDK16 + Cyclin Y): 2.21 | Relative BRET Signal, CDK16 + Cyclin Y (CDK16/Cyclin Y; [11]): 2.21 | Relative BRET signal (CDK12/Cyclin K; CDK12 + Cyclin K): 1.39 | Relative BRET Signal, CDK12 + Cyclin K (CDK12/Cyclin K; [11]): 1.39
